## Results of single-concentration screens

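Whole-parasite assay of Trypanosoma brucei over 72 hours; the read-out is not stated. Tested at 30 µM. Direction is inferred from retests: higher values go with stronger inhibition. Values scatter widely below zero; nearly all retest evidence comes from the higher of the two concentrations used. Of about 64,000 compounds tested this way, about 940 (1.5%) reached 50% or more in at least one test.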

The filed quantity is “Percent Effect” (%). The record does not define 0% and 100%; most values in the screen are far below 50% and negative numbers occur (in some assays of this library far below -100). The compounds are a random part of those screened.

- CN(C)C(=O)c1cnc2n1CCN(Cc1ccc3c(c1)OCO3)C2.O=C(O)C(F)(F)F : -102%
- COc1ccccc1CNC(=O)N1CCN(Cc2cc(C)on2)CC1 : 8.683%
- CN1CC(NC(=O)CCOc2cccc(Cl)c2)CC1=O (stereo not given) : -96.48%
- Cc1noc(C)c1CN1CCC2(CC1)CC(Oc1cccnc1)C2.O=C(O)C(F)(F)F.O=C(O)C(F)(F)F : -80.23%
- CC(C)(C)n1ncc(NCC(O)c2ccc(F)c(F)c2)c(Cl)c1=O (stereo not given) : -7.617%
- CCN1CCC(NC(=O)CN2CCCC2Cn2cc(C)cn2)CC1 (stereo not given) : -1.15%
- O=C(C1CC1)N1CCC(C(=O)N2CCC(c3ccc(F)cc3)C2)CC1 (stereo not given) : -21.53%
- CCc1nc(N2CCN(CCOC)CC2)c2cnn(C)c2n1 : -46.31%
- CCCN(c1ccccc1C(=O)O)S(=O)(=O)c1ccc2ccccc2c1 : -5.273%
- CCc1ccc(CN2CCC(=O)N(CC3CC3)C(C(C)C)C2)nc1 (stereo not given) : -64.79%
- CN(Cc1nc2c(cnn2C)c(=O)[nH]1)Cc1ccco1 : -18.89%
- O=C(O)C(F)(F)F.O=C(O)C(F)(F)F.[H][C@@]12CN(Cc3ccncc3)C[C@]1([H])[C@@H]2CC(=O)N1CCCC1 : -15.2%
- CNC(=O)C(NC(=O)CCc1cccc(OC2CCCC2)c1)C(C)C (stereo not given) : 5.576%
- Cc1cnn(CC2CN(CC(=O)N(C)Cc3cnn(C)c3)CCO2)c1 (stereo not given) : 15.01%
- CCC(C)C(=O)NS(=O)(=O)c1ccc(C#N)cc1C(F)(F)F (stereo not given) : -7.886%
- O=C(NCC1(O)CCSCC1)c1nccc2ccccc12 : -43.9%
- COCCN(CCC#N)Cn1cc(Cl)cn1 : 3.036%
- Cc1cnn(CCNCc2nc(Cc3ccccc3)no2)c1 : -8.184%
- Cn1c(C(F)(F)F)nn(CCNC(=O)NCc2ccccc2)c1=O : -45.65%
- CC1CCc2nn(CCNC(=O)Cc3ccccc3F)c(=O)cc2C1 (stereo not given) : -5.089%
- NC(=O)C1CCN(c2ncc(-c3cnccn3)c([C@H]3CCCO3)n2)CC1 : 2.532%
- CNc1oc(-c2cc(S(=O)(=O)N3CCCCCC3)c(C)o2)nc1C#N : 38.28%
- COc1cn(CC(N)=O)c(CSc2nc(C)cc(C)n2)cc1=O : -66.76%
- NC(=O)c1csc(N2C[C@@H](CN3CCOCC3)[C@@H](CO)C2)n1 : -28.48%
- CS(=O)(=O)c1ccc(-c2c[nH]c([C@@H]3COCCN3)n2)cc1 : 10.44%
- O=C(Cc1cn2ccsc2n1)N1CCCC(n2cccn2)C1 (stereo not given) : -2.251%
- O=C(c1cccs1)N1CCC(n2nc(-c3ccco3)ccc2=O)CC1 : 14.12%
- COc1ccc(Cl)cc1CCNC(=O)NCc1noc(C)n1 : -9.391%
- CN1CCN(C2CCN(CCOc3ccccc3)CC2)C1=O : 1.189%
- CCCOCC(=O)N1CCc2c(cccc2S(=O)(=O)N2CCOCC2)C1 : -28.49%
- [H][C@@]12CCC(=O)N(CCc3c[nH]cn3)[C@]1([H])CCN(Cc1cccc(F)c1)C2 : -35.21%
- CC1=Nc2c(c(=O)[nH]n2C(C)C)C(c2ccsc2)S1 (stereo not given) : -29.01%
- C/N=C1\c2cc3cc(OC)ccc3n2CCN1Cc1ccccc1.O=C(O)C(F)(F)F : 28.46%
- O=C(O)C(F)(F)F.O=C(O)C(F)(F)F.[H][C@]12C[C@H](CN(C)C)O[C@@]1([H])CN(Cc1ccco1)C2 : -15.18%
- CC(C)CN1CCn2c(COCc3cccnc3)nnc2C1.O=C(O)C(F)(F)F.O=C(O)C(F)(F)F : -9.952%
- Cc1cnn(C2CCCN(C(=O)CN(C)c3cnccn3)C2)c1 (stereo not given) : -38.79%
- CS(=O)(=O)N1CCC(Nc2ccnc3ccc(Cl)cc23)CC1 : -667%
- O=C(CN1CCCC1CCCO)NCc1ccccn1 (stereo not given) : -11.89%
- Cc1cccc(C)c1OC1CN(C(=O)C2CC(=O)N(C(C)(C)C)C2)C1 (stereo not given) : -21.84%
- O=C(Cn1cc(-c2ccccc2)ncc1=O)Nc1ncc[nH]1 : -10.9%

Once more, the final 5:

* Cc1cnn(C2CCCN(C(=O)CN(C)c3cnccn3)C2)c1 (stereo not given) | -38.79%
* CS(=O)(=O)N1CCC(Nc2ccnc3ccc(Cl)cc23)CC1 | -667%
* O=C(CN1CCCC1CCCO)NCc1ccccn1 (stereo not given) | -11.89%
* Cc1cccc(C)c1OC1CN(C(=O)C2CC(=O)N(C(C)(C)C)C2)C1 (stereo not given) | -21.84%
* O=C(Cn1cc(-c2ccccc2)ncc1=O)Nc1ncc[nH]1 | -10.9%

The values are deposited in ChEMBL (CHEMBL3988442, “University of Dundee, Small-Polar-MMV Screening Library” (2021)).